For the assay, the target named is T1, TNFR-associated factor 2 (TRAF2) (UniProt Q12933).
T1 sequence: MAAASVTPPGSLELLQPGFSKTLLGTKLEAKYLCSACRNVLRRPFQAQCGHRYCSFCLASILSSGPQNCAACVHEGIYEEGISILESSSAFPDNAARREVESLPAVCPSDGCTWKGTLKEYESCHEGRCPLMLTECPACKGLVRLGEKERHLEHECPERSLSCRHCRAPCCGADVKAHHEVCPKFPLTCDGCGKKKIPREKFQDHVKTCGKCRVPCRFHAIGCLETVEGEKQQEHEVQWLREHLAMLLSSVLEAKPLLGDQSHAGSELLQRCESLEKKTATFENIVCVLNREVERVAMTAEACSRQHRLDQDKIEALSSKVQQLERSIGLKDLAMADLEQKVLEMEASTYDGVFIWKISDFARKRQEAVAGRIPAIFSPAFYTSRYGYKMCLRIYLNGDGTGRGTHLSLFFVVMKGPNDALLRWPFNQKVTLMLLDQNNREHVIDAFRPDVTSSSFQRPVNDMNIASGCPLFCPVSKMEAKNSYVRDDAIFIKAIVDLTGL
The assay can be described thus: co-IP; proteins coexpressed in HEK293 cells; immunoprecipitation and immunoblotting with the antibodies indicated; for TRAF2 with TRAF3 also with co-transfected USP17.

These are yes or no findings as the source states them, for the method shown. In cells and extracts the contact can be indirect. Some binding calls cover weakened binding; strength is not graded here.

B1: ubiquitin-specific peptidase 17 (USP17), wild type (enzyme, UniProt Q6R6M4 1-530)
chain: MEDDSLYLGGEWQFNHFSKLTSSRPDAAFAEIQRTSLPEKSPLSSEARVDLCDDLAPVARQLAPRKKLPLSSRRPAAVGAGLQNMGNTCYENASLQCLTYTPPLANYMLSREHSQTCQRPKCCMLCTMQAHITWALHSPGHVIQPSQALAAGFHRGKQEDAHEFLMFTVDAMKKACLPGHKQVDHHSKDTTLIHQIFGGCWRSQIKCLHCHGISDTFDPYLDIALDIQAAQSVKQALEQLVKPEELNGENAYHCGLCLQRAPASKTLTLHTSAKVLILVLKRFSDVTGNKLAKNVQYPECLDMQPYMSQQNTGPLVYVLYAVLVHAGWSCHDGHYFSYVKAQEGQWYKMDDAKVTACSITSVLSQQAYVLFYIQKSEWERHSESVSRGREPRALGAEDTDRRATQGELKRDHPCLQAPELDERLVERATQESTLDHWKFPQEQNKTKPEFNVRKVEGTLPPNVLVIHQSKYKCGMKNHHPEQQSSLLNLSSTTRTDQESVNTGTLASLQGRTRRSKGKNKHSKRALLVCQ
Regarding B1, the binding entry was “binds”.
